Source: article PMC3050797
Results are given in words; binding and its absence hold for the method and conditions named. Binding seen in cells or lysates may run through a third protein. Some results given as binding are weak or reduced against the parent protein; the word gives no strength. Sequences can lack the tags named with a protein.

T1: Bud3p-GST (S. cerevisiae), P25558
T1 chain: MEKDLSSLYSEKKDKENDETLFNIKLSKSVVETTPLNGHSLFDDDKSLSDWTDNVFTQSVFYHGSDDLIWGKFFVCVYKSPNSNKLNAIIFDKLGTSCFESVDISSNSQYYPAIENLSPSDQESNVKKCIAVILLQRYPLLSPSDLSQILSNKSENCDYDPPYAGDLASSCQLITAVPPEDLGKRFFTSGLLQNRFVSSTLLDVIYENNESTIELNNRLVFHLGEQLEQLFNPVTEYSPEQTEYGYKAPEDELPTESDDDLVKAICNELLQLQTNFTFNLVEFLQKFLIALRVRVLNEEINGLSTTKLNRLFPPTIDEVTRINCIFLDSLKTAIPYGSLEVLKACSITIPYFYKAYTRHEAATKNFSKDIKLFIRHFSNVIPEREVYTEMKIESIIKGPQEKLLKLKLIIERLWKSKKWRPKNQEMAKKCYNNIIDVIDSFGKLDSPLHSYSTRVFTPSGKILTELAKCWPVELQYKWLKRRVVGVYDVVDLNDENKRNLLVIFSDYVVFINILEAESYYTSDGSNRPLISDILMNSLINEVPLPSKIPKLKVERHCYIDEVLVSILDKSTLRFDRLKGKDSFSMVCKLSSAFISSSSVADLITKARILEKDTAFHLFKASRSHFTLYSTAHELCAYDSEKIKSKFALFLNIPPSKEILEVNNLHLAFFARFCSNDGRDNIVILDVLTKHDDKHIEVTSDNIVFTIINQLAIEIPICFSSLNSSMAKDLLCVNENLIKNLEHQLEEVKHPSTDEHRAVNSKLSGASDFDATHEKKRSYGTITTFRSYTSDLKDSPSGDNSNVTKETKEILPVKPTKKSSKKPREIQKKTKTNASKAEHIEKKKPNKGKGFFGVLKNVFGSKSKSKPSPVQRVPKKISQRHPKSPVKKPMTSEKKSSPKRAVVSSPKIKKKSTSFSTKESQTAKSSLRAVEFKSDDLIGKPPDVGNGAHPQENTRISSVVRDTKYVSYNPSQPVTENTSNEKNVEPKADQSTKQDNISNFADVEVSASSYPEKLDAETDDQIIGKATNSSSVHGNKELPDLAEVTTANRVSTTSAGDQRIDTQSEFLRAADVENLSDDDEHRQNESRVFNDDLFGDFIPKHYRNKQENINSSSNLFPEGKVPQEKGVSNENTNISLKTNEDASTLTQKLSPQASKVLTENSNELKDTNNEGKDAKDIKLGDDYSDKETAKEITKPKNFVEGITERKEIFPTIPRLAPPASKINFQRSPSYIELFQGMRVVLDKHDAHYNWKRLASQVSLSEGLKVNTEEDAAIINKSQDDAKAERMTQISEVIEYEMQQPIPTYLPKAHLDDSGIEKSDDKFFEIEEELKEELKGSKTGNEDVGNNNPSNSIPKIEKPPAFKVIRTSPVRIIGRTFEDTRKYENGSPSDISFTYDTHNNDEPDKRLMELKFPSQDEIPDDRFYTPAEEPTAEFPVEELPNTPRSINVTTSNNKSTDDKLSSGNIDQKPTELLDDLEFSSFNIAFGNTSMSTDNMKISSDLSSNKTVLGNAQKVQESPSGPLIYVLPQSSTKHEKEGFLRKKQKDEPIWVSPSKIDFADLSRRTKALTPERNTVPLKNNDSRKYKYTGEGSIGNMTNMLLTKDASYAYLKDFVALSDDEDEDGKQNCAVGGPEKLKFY


What was measured:
[1] = molecular target: T1, Bud3p-GST (S. cerevisiae), P25558; assay: pull-down; Bud3p-GST pulled down with glutathione-Sepharose beads from yeast cell lysates after 4 h galactose induction; GFP-tagged septins detected by anti-GFP immunoblot; settings: remark: other sources report otherwise
[2] = molecular target: Bud3p-GST (S. cerevisiae) (UniProt P25558); assay: as above

binding [1]	binding [2]	Binder
binds	–	Cdc11p-GFP, P32458 1-415 (protein) MSGIIDASSALRKRKHLKRGITFTVMIVGQSGSGRSTFINTLCGQQVVDTSTTILLPTDTSTEIDLQLREETVELEDDEGVKIQLNIIDTPGFGDSLDNSPSFEIISDYIRHQYDEILLEESRVRRNPRFKDGRVHCCLYLINPTGHGLKEIDVEFIRQLGSLVNIIPVISKSDSLTRDELKLNKKLIMEDIDRWNLPIYNFPFDEDEISDEDYETNMYLRTLLPFAIIGSNEVYEMGGDVGTIRGRKYPWGILDVEDSSISDFVILRNALLISHLHDLKNYTHEILYERYRTEALSGESVAAESIRPNLTKLNGSSSSSTTTRRNTNPFKQSNNINNDVLNPASDMHGQSTGENNETYMTREEQIRLEEERLKAFEERVQQELLLKRQELLQREKELREIEARLEKEAKIKQEE
–	binds	Cdc10p-GFP (protein, UniProt P25342 1-322) MDPLSSVQPASYVGFDTITNQIEHRLLKKGFQFNIMVVGQSGLGKSTLINTLFASHLIDSATGDDISALPVTKTTEMKISTHTLVEDRVRLNINVIDTPGFGDFIDNSKAWEPIVKYIKEQHSQYLRKELTAQRERFITDTRVHAILYFLQPNGKELSRLDVEALKRLTEIANVIPVIGKSDTLTLDERTEFRELIQNEFEKYNFKIYPYDSEELTDEELELNRSVRSIIPFAVVGSENEIEINGETFRGRKTRWSAINVEDINQCDFVYLREFLIRTHLQDLIETTSYIHYEGFRARQLIALKENANSRSSAHMSSNAIQR
